Measurements taken from patent US4087419A, “Heptapeptides and methods for their production” (Parke, Davis & Company, priority 1976, dated 1978).
At least one peptide structure holds a part that was inferred or is arguable (an end, a ring closure or a residue). Where a SMILES comes first, the peptide text is derived from it. [ ]: non-standard residue; d: D form. The star is where a group is joined. Arg(NO2) = N=C(NCCC[C@H](N)C(=O)O)N[N+](=O)[O-]; Tos = Cc1ccc(S(=O)(=O)*)cc1; Boc = CC(C)(C)OC(=O)*; Bn = c1ccc(C*)cc1

Tested on: LRF (luteinizing hormone releasing factor) induced luteinizing hormone (LH) release
Experiment: LRF antagonist activity in vitro in rat anterior pituitary cell cultures
Assay type: cell-based
Settings: test compound at Molar Conc. 1 × 10^-7; for LH Value: LH released into culture medium of rat anterior pituitary cell cultures, LRF-induced

Compound | LH Value | % LH Release Inhibition (against LRF Control 5 × 10^-10, rat anterior pituitary cell cultures)
COC(=O)CNC(=O)[C@@H]1CCCN1C(=O)[C@H](CCCNC(=N)NS(=O)(=O)c1ccc(C)cc1)NC(=O)[C@H](CC(C)C)NC(=O)[C@@H](Cc1ccccc1)NC(=O)[C@H](Cc1ccc(OCc2ccccc2)cc1)NC(=O)[C@H](COCc1ccccc1)NC(=O)OC(C)(C)C [N^α -t-Butoxycarbonyl-O-benzyl-L-seryl-O-benzyl-L-tyrosyl-D-phenylalanyl-L-leucyl-N^G -[(4-methylphenyl)sulfonyl]-L-arginyl-L-prolyl-glycine methyl ester] (Boc-S(Bn)Y(Bn)[dF]LR(Tos)PG-OMe) | 23.79 ng/mL | 74%
COC(=O)CNC(=O)[C@@H]1CCCN1C(=O)[C@H](CCCNC(=N)N[N+](=O)[O-])NC(=O)[C@H](CC(C)C)NC(=O)[C@@H](Cc1ccccc1)NC(=O)[C@H](Cc1ccc(OCc2ccccc2)cc1)NC(=O)[C@H](COCc1ccccc1)NC(=O)OC(C)(C)C [N^α -t-Butoxycarbonyl-O-benzyl-L-seryl-O-benzyl-L-tyrosyl-D-phenylalanyl-L-leucyl-N^G -nitro-L-arginyl-L-prolyl-glycine methyl ester] (Boc-S(Bn)Y(Bn)[dF]L[Arg(NO2)]PG-OMe) | 13.94 ng/mL | 
